From US9491941B2, “(Hetero) arylacrylamides for the control of ectoparasites” (Novartis Tiergesundheit AG, priority 2012, dated 2016)
Some of these results come from one statement about several compounds together. At least one compound was matched to its structure with a doubt left.

Legend:
[1] = system: Ctenocephalides felis (cat flea); test: Activity in vivo against Ctenocephalides felis on Mongolian gerbils (per oral application); details: at 32 mg/kg oral gavage, live fleas counted after 48 h infestation
Polyplax serrata (lice) = test: Activity in vivo against lice (Polyplax serrata) in mice (topical); details: spray or pour-on, naturally infected mice, live lice counted on day +4 and +14
[2] = system: Rhipicephalus sanguineus nymphs; test: Activity in vivo against Rhipicephalus sanguineus nymphs on Mongolian gerbils (per oral application); details: at 10 mg/kg oral gavage, engorged nymphs counted seven days after infestation

Row | Compound | efficacy (EC90), Henderson & Tilton formula (Polyplax serrata (lice); at 10 mg/kg) | efficacy (EC90), Henderson & Tilton formula (Polyplax serrata (lice); at 3.2 mg/kg) | other results
1 | O=C(/C=C/c1ccc(C(=O)NCC(F)(F)F)c2ccccc12)NC(c1cccc(C(F)(F)F)c1)C(F)(F)F (centres unmarked) [Example 1.7] | more than 80% |  | efficacy (EC80) vs placebo, Abbot's formula [1]: more than 80%
2 | O=C(/C=C/c1ccc(C(=O)Nc2ccc(F)cc2)c2ccccc12)NC(c1cccc(C(F)(F)F)c1)C(F)(F)F (centres unmarked) [Example 1.8] | more than 80% |  | 
3 | CCNC(=O)c1ccc(/C=C/C(=O)NC(c2cccc(C(F)(F)F)c2)C(F)(F)F)c2ccccc12 (centres unmarked) [Example 1.13] |  | more than 80% | 
4 | N#CC1(NC(=O)c2ccc(/C=C/C(=O)NC(c3cccc(C(F)(F)F)c3)C(F)(F)F)c3ccccc23)CC1 (centres unmarked) [Example 1.26] | more than 80% |  | 
5 | CC(C)NC(=O)c1ccc(/C=C/C(=O)NC(c2cccc(C(F)(F)F)c2)C(F)(F)F)c2ccccc12 (centres unmarked) [Example 1.27] |  | more than 80% | 
6 | CCN(CC)C(=O)c1ccc(/C=C/C(=O)NC(c2cccc(C(F)(F)F)c2)C(F)(F)F)c2ccccc12 (centres unmarked) [Example 1.39] |  | more than 80% | efficacy (EC90), tick number reduction vs placebo, Abbot's formula [2]: more than 90%
